Assay results from the supplement of paper PMC12067093, “Discovery and optimisation of a covalent ligand for TRIM25 and its application to targeted protein ubiquitination” (Chemical Science, 2025).
The other results are listed elsewhere or left out.

Compound: Cc1cc(ccc1-c1ccccc1)C(=O)N1CCCN(CC1)C(=O)CCl [compound 10]
Assay: probe-labelled cysteine peptide fold change vs DMSO (competition) (log2 fold change); higher = less target engagement (more negative = stronger competition)
Conditions: THP-1, incubation time: 4 h
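Also: competitive profiling in live THP-1 cells: cysteine peptides tagged with an iodoacetamide desthiobiotin (IA-DTB) probe, intensity after compound treatment relative to DMSO-treated cells.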

Target	probe-labelled cysteine peptide fold change (10 µM)	probe-labelled cysteine peptide fold change (50 µM)
INTS13_Q9NVM9_134_ADPECCSILHGLVAAVETLCK (UniProt Q9NVM9)	0.161	0.0492
ITGB1_P05556_618_GICECGVCK (UniProt P05556)	0.0575	0.0123
IRF2BP1_Q8IU81_518_LEDTHFVQCPSVPGHK (UniProt Q8IU81)	0.00562	-0.0476
ITPK1_Q13572_391_LGCNAGVSPSFQQHCVASLATK (UniProt Q13572)	0.0517	-0.193
IPMK_Q8NFU5_373_VFYHLPTGCQEIAEVEVR (UniProt Q8NFU5)	0.0977	-0.316
ITGB2_P05107_445_ALGFTDIVTVQVLPQCECR (UniProt P05107)	0.0381	0.0559
IRF2BP2_Q7Z5L9_16_RQSCYLCDLPR (UniProt Q7Z5L9)	0.00367	-0.1
INTS5_Q6P9B9_821_AVAVTLVESVCPDAAGAELAWPPEEHAR (UniProt Q6P9B9)	0.194	0.0309
IRF5_Q13568_44_KLFCIPWR (UniProt Q13568)	-0.151	-0.786
IP6K1_Q92551_248_KCEQSTSATLGVR (UniProt Q92551)	-0.0618	-0.363
INPPL1_O15357_689_TNVPSWCDR (UniProt O15357)	0.0817	-0.00302
ITGB2_P05107_400_GDCDGVQINVPITFQVK (UniProt P05107)	-0.218	-0.0527
IPO9_Q96P70_545_AIWGYCDQLK (UniProt Q96P70)	0.0549	-0.092
INTS2_Q9H0H0_1188_DTGSMDPDVQLCHCIER (UniProt Q9H0H0)	0.232	0.034
IPO9_Q96P70_90_QYVETHWCAQSEK (UniProt Q96P70)	-0.058	0.0337
INTS13_Q9NVM9_331_TNNIELHYCTGAYR (UniProt Q9NVM9)	0.129	0.319
INTS1_Q8N201_867_LGHLLCR (UniProt Q8N201)	0.132	-0.179
IRAK1_P51617_608_SWHLTPSCPLDPAPLR (UniProt P51617)	0.188	0.076
INTS7_Q9NVH2_374_VLTNITVSCQEK (UniProt Q9NVH2)	0.217	-0.0134
IRS2_Q9Y4H2_409_SHTLSGGCGGR (UniProt Q9Y4H2)	-0.194	-0.526

Target	probe-labelled cysteine peptide fold change (10 µM)	probe-labelled cysteine peptide fold change (50 µM)
ITGA5_P08648_911+916_CPEAECFR (UniProt P08648)	-0.467	-0.188
ITGB2_P05107_670_DSEGCWVAYTLEQQDGMDR (UniProt P05107)	-0.256	-0.12
INTS9_Q9NV88_471_EVQPLHVVCPEQYTQPPPAQSHR (UniProt Q9NV88)	-0.0282	-0.0888
ITGB1BP1_O14713_60_SSGQSNNNSDTCAEFR (UniProt O14713)	-0.232	-0.427
IRF2BP2_Q7Z5L9_16+19_QSCYLCDLPR (UniProt Q7Z5L9)	-0.215	-0.511
ITGB1_P05556_75_GCPPDDIENPR (UniProt P05556)	-0.242	-0.289
IP6K1_Q92551_275_VCGMQVYQLDTGHYLCR (UniProt Q92551)	-0.0724	-0.0929
INVS_Q9Y283_702_GQSACVHFRPNEGSDGSR (UniProt Q9Y283)	0.0228	-0.16
IPO5_O00410_348_MACGLGGK (UniProt O00410)	-0.173	0.0487
IQGAP3_Q86VI3_1411_RQACTAQTPEPLRR (UniProt Q86VI3)	-0.0999	-0.404
ISCU_Q9H1K1_130_ELCLPPVK (UniProt Q9H1K1)	-0.247	-0.408
IQGAP1_P46940_57_WMEACLGEDLPPTTELEEGLR (UniProt P46940)	-0.191	0.0173
IQGAP3_Q86VI3_74_LGHCFAPSVVPLK (UniProt Q86VI3)	-0.0108	0.0396
IRF2BP2_Q7Z5L9_37_MPWAMIWDFTEPVCR (UniProt Q7Z5L9)	0.414	-0.205
IQSEC1_Q6DN90_359_ADTDTSCR (UniProt Q6DN90)	-0.182	-0.375
ISG15_P05161_78_LAVHPSGVALQDRVPLASQGLGPGSTVLLVVDKCDEPLSILVR (UniProt P05161)	-0.05	-0.542
ITGB2_P05107_467_GFLECGICR (UniProt P05107)	0.0535	0.221
INTS9_Q9NV88_391_QPCVVFTGHPSLR (UniProt Q9NV88)	0.193	0.147
INTS2_Q9H0H0_272_GMVVEECHLPGLGVALTLDHTK (UniProt Q9H0H0)	0.141	0.36
